Taken from: PubChem BioAssay AID1159578 (Peter MacCallum Cancer Centre, 2015)
Purpose: 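Knock-downs that alter how fast lymphatic endothelial cells migrate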 (primary screen). Cells: human lymphatic endothelial cells. Knock-down reagent: siRNA pool against human genes, 40 nM. Duration: 48 h after transfection. Detection: 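High-content imaging of dye-stained cells in a scratch assay measures filled wound area and nuclei per well; duplicate means given as ratio to mock and robust z-score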. Scale: migration robust z-score: higher = faster migration into the scratch; nuclei per well: higher = more cells in the well. Hit rule: 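Migration changed when robust z exceeds 2 or falls below -2 and mean nuclei number is at least 3300; otherwise not called changed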. Calls: active = migration changed; inactive = no migration change, or too few cells.
Shown is one part, drawn at random, of about 18,000 reagents. In the full data, about 1,030 (5.7%) are marked active. 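Inactive calls also include pools with fewer than 3300 nuclei, whose migration was not assessed.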 The raw values are shown without normalisation. Entries without a mark were called inactive. Further read-outs or replicates are left out here. Reagent sequences are not shown.

{"gene knocked down":"POMP (GeneID 51371)","migration robust z-score":-0.62,"migration class with cell-count check":"under 3300 nuclei; migration not judged","nuclei per well, duplicate mean":2666}
{"gene knocked down":"CHAD (GeneID 1101)","migration robust z-score":0.42,"migration class with cell-count check":"migration z between -2 and 2; enough cells","nuclei per well, duplicate mean":5557}
{"gene knocked down":"TNFSF8 (GeneID 944)","migration robust z-score":"2.14 (active)","migration class with cell-count check":"migration z above 2; enough cells","nuclei per well, duplicate mean":5978}
{"gene knocked down":"IL1B (GeneID 3553)","migration robust z-score":"-2.36 (active)","migration class with cell-count check":"migration z below -2; enough cells","nuclei per well, duplicate mean":6516}
{"gene knocked down":"CPSF7 (GeneID 79869)","migration robust z-score":0.98,"migration class with cell-count check":"migration z between -2 and 2; enough cells","nuclei per well, duplicate mean":6414}
{"gene knocked down":"INHA (GeneID 3623)","migration robust z-score":0.55,"migration class with cell-count check":"migration z between -2 and 2; enough cells","nuclei per well, duplicate mean":6292}
{"gene knocked down":"FAM204A (GeneID 63877)","migration robust z-score":-1.66,"migration class with cell-count check":"migration z between -2 and 2; enough cells","nuclei per well, duplicate mean":5477}
{"gene knocked down":"RALGPS2 (GeneID 55103)","migration robust z-score":0.23,"migration class with cell-count check":"migration z between -2 and 2; enough cells","nuclei per well, duplicate mean":6313}
{"gene knocked down":"OSGIN2 (GeneID 734)","migration robust z-score":1.04,"migration class with cell-count check":"migration z between -2 and 2; enough cells","nuclei per well, duplicate mean":5266}
{"gene knocked down":"RMI2 (GeneID 116028)","migration robust z-score":-0.32,"migration class with cell-count check":"migration z between -2 and 2; enough cells","nuclei per well, duplicate mean":5652}

Targets above whose target name starts with R or r (2):
{"gene knocked down":"RALGPS2 (GeneID 55103)","migration robust z-score":0.23,"migration class with cell-count check":"migration z between -2 and 2; enough cells","nuclei per well, duplicate mean":6313}
{"gene knocked down":"RMI2 (GeneID 116028)","migration robust z-score":-0.32,"migration class with cell-count check":"migration z between -2 and 2; enough cells","nuclei per well, duplicate mean":5652}

Further entries:
{"gene knocked down":"OR9Q1 (GeneID 219956)","migration robust z-score":0.12,"migration class with cell-count check":"migration z between -2 and 2; enough cells","nuclei per well, duplicate mean":5832}
{"gene knocked down":"MAEL (GeneID 84944)","migration robust z-score":-0.67,"migration class with cell-count check":"migration z between -2 and 2; enough cells","nuclei per well, duplicate mean":3880}
{"gene knocked down":"WDR70 (GeneID 55100)","migration robust z-score":1.08,"migration class with cell-count check":"migration z between -2 and 2; enough cells","nuclei per well, duplicate mean":4928}
{"gene knocked down":"ADAM30 (GeneID 11085)","migration robust z-score":-1.06,"migration class with cell-count check":"migration z between -2 and 2; enough cells","nuclei per well, duplicate mean":5539}
{"gene knocked down":"CREG2 (GeneID 200407)","migration robust z-score":0.2,"migration class with cell-count check":"migration z between -2 and 2; enough cells","nuclei per well, duplicate mean":4648}
{"gene knocked down":"WDR83 (GeneID 84292)","migration robust z-score":-4.08,"migration class with cell-count check":"under 3300 nuclei; migration not judged","nuclei per well, duplicate mean":2658}
{"gene knocked down":"CYP2C8 (GeneID 1558)","migration robust z-score":-1.4,"migration class with cell-count check":"migration z between -2 and 2; enough cells","nuclei per well, duplicate mean":5722}
{"gene knocked down":"AIPL1 (GeneID 23746)","migration robust z-score":-0.08,"migration class with cell-count check":"migration z between -2 and 2; enough cells","nuclei per well, duplicate mean":3592}
{"gene knocked down":"PFN3 (GeneID 345456)","migration robust z-score":-3.21,"migration class with cell-count check":"under 3300 nuclei; migration not judged","nuclei per well, duplicate mean":1617}
{"gene knocked down":"CYP11B2 (GeneID 1585)","migration robust z-score":-0.78,"migration class with cell-count check":"migration z between -2 and 2; enough cells","nuclei per well, duplicate mean":5408}
{"gene knocked down":"GRIK2 (GeneID 2898)","migration robust z-score":-0.24,"migration class with cell-count check":"migration z between -2 and 2; enough cells","nuclei per well, duplicate mean":5179}
